The values that follow come from PMC5595311.

No constants are given. Whether binding was seen depends on the method and setting. In cells and extracts the contact can be indirect. Tags and fused reporters may be left off the sequences shown.

For the assay, the target named is T1, TRIF (Flag- or HA-tagged) (murine) (UniProt Q80UF7).
T1 sequence: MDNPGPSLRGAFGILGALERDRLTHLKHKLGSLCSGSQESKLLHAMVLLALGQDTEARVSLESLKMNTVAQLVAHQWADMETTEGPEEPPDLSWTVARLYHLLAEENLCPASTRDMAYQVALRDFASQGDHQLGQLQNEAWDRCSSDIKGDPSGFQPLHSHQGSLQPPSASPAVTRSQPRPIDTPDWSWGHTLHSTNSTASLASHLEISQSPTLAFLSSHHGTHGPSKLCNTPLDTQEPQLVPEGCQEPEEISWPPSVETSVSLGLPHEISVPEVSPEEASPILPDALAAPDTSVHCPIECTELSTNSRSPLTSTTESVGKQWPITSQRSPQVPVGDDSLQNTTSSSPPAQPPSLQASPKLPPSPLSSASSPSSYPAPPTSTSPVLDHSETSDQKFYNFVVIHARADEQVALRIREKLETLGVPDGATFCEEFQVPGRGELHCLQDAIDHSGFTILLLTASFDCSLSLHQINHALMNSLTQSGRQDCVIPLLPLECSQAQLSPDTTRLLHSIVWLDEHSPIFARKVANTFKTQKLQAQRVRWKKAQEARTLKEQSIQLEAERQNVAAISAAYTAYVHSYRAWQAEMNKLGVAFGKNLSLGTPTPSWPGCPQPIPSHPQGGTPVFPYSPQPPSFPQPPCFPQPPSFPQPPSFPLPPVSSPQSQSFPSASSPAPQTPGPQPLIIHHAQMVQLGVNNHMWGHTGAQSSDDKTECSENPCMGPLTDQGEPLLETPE
In words: co-IP; HEK293 cells transfected with the indicated plasmids for 24 hours, co-immunoprecipitation and immunoblotting with the indicated antibodies. (A western blot detects proteins with antibodies after separation by electrophoresis.)

B1: NDP52 (Flag- or HA-tagged) (protein, UniProt A2A6M5 1-331)
chain: MDQCPIPTLLEHGNFSQVLFNNVEKFYAPRGDIMCYYTLTEKFIPRRKDWIGIFKVGWKTTQEYYTFMWAPLPKDQNKDSATQQEIQFKAYYLPKDVERYQFCYVDEDGLVRGTSVPFQFCPDPDEDIMVVINKEKVEEMEQLSEELYQQNQELKDKYADLHEQLQRKQVALEATQRVNKTLEHKVEEKASWEKEKASWEEEKASWEEEKASWEEEKASWEEEKASWEEEKASWEEEKASWEEEKASWEEEKASWEEEKASWEEEKASWEEEKASWEEEKASWEEEKASWEKEKASWEEEKASWEKEKAPWEVEKAPWKEVKAYWWNDLHR
On to B1, for which the binding result is listed as “no binding”.
